PMC4231120

Protein sequences, listed by entry. Tags and fused reporters are not part of them. Lines headed by an entry give the natural chain unless they say otherwise; changes in a name come on top. Residues count along the entry.
UniProt Q9M9P3: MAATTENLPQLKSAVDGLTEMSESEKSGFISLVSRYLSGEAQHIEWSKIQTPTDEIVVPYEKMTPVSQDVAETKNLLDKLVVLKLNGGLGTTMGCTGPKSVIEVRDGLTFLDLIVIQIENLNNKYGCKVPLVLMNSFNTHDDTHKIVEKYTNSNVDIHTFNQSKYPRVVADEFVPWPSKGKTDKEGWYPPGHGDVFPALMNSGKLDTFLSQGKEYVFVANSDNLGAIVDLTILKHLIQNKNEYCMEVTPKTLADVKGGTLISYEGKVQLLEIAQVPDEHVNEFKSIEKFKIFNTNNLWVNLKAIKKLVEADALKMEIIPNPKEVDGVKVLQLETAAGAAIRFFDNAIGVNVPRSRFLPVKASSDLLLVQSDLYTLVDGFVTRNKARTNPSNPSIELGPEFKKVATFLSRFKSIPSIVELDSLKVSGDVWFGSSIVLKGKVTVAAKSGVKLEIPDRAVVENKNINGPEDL
UniProt Q9LKR3, residues 28-669: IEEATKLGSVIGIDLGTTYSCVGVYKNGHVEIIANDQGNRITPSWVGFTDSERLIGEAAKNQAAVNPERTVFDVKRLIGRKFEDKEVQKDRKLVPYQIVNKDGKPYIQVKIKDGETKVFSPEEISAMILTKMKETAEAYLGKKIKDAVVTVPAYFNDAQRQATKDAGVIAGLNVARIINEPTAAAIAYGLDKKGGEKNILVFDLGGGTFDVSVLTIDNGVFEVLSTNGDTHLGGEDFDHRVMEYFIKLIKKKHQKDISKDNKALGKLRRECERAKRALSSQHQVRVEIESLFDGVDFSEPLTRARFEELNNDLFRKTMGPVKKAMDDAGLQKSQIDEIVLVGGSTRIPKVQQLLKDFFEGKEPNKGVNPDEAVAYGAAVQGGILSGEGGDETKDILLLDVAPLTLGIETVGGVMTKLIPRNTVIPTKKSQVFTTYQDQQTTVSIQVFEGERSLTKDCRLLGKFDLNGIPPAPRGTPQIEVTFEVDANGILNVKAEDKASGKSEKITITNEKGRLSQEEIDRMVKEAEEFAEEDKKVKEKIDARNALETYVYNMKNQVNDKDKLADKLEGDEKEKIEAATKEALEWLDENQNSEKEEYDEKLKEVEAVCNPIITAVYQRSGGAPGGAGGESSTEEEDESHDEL
UniProt P29514: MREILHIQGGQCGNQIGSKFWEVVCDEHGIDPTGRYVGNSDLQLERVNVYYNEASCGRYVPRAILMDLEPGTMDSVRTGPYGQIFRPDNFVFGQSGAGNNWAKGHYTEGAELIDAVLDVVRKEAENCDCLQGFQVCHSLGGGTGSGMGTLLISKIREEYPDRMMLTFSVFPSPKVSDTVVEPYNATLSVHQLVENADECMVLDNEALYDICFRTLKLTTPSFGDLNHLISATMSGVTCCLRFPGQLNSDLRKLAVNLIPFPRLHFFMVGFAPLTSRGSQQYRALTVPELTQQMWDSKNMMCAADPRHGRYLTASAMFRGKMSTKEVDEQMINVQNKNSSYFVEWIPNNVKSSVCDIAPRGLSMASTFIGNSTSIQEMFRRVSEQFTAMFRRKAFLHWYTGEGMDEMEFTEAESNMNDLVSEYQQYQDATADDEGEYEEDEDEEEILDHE
UniProt P37702, residues 20-541: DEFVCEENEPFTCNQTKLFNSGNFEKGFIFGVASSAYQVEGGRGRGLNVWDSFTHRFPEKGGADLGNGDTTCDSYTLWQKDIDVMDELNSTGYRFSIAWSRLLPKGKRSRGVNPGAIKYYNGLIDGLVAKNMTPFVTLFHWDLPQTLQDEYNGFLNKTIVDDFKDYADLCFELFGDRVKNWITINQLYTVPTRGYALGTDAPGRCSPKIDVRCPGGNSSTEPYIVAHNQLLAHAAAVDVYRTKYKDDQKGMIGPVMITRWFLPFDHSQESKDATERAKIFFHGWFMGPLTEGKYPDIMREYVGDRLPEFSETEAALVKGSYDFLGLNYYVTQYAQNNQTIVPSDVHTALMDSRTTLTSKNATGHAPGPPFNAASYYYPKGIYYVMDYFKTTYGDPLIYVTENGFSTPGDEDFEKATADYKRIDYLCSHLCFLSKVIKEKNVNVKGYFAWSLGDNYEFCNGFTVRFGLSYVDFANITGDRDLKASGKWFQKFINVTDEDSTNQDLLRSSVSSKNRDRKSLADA
UniProt Q9SJT9: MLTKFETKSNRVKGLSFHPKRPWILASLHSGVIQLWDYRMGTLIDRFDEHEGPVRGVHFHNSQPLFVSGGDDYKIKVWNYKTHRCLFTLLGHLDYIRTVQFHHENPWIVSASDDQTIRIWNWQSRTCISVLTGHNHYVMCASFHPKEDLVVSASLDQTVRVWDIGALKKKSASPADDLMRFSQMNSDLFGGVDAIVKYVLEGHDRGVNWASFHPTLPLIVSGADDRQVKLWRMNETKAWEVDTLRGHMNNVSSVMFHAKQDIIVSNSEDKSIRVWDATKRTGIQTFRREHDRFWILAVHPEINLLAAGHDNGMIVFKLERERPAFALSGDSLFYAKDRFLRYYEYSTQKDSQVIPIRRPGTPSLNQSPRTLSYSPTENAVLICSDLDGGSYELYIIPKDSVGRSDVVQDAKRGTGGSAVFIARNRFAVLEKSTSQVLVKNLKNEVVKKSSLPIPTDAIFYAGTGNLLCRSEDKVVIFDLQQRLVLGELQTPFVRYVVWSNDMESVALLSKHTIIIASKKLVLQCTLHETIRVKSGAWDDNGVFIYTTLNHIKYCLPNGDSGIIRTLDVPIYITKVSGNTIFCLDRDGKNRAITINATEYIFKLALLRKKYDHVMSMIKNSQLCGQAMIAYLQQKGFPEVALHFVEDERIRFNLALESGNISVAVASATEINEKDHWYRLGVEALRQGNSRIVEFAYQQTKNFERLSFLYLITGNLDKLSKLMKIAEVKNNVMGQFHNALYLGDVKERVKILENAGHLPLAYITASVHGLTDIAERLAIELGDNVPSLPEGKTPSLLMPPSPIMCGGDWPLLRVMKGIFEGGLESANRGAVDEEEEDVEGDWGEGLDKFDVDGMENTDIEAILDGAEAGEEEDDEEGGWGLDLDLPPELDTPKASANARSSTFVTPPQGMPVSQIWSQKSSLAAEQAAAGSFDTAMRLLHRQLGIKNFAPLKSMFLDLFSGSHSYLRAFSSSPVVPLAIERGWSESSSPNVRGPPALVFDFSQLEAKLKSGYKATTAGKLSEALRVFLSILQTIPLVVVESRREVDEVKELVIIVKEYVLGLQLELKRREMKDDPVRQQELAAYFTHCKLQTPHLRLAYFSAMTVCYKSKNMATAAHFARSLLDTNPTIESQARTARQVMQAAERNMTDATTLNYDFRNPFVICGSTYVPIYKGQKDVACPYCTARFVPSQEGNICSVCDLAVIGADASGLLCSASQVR
UniProt Q9FVT2: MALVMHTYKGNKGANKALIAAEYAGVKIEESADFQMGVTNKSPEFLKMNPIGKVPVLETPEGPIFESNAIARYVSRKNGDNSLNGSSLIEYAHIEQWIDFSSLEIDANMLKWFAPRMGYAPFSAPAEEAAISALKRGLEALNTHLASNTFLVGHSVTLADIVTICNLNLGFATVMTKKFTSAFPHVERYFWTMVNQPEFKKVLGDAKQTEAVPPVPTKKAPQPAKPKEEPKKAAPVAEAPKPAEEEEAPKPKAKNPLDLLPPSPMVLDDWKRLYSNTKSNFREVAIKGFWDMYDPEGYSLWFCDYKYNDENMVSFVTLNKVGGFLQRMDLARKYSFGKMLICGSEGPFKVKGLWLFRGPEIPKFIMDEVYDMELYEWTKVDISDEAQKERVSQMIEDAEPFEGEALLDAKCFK
UniProt Q0WNJ6: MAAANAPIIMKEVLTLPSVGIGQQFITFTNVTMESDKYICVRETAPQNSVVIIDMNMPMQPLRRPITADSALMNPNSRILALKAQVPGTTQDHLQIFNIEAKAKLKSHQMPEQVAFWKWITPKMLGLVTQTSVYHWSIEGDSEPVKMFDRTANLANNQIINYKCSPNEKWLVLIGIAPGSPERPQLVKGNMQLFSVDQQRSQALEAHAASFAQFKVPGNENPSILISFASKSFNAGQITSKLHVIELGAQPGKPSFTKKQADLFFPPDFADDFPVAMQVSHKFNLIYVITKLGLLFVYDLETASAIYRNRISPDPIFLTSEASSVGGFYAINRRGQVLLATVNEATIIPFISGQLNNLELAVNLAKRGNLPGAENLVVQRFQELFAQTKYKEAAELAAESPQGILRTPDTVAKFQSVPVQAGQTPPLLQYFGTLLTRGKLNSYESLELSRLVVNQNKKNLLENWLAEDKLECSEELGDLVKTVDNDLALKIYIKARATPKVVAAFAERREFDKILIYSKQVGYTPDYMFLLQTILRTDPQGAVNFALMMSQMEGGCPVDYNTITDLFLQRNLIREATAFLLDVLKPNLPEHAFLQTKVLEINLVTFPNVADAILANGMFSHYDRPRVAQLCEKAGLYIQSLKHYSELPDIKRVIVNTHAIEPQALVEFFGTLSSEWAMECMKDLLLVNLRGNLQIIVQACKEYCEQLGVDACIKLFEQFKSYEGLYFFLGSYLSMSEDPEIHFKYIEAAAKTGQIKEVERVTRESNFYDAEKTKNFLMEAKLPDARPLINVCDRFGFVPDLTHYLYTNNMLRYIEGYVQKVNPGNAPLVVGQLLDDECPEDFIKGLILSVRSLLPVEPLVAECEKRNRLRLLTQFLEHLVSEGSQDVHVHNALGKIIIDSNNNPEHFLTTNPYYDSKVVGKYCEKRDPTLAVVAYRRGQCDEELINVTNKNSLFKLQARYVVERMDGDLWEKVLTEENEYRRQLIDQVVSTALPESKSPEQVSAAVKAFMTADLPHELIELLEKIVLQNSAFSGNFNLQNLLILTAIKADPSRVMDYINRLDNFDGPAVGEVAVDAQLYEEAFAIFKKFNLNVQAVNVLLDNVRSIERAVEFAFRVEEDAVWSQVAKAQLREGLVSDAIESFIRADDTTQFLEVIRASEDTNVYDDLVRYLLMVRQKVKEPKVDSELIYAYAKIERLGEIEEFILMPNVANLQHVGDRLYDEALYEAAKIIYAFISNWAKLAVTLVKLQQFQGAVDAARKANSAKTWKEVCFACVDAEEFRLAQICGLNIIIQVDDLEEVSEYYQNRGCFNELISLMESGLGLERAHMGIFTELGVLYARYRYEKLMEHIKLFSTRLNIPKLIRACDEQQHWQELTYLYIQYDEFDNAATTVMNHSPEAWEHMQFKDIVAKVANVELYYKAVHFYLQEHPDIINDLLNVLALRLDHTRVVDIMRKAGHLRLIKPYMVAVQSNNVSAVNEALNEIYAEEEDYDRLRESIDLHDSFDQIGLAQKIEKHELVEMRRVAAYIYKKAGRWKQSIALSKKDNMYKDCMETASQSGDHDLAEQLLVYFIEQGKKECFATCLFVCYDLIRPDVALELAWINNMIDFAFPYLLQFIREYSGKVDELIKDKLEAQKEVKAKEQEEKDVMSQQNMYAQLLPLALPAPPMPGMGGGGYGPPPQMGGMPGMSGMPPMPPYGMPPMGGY
UniProt P29516: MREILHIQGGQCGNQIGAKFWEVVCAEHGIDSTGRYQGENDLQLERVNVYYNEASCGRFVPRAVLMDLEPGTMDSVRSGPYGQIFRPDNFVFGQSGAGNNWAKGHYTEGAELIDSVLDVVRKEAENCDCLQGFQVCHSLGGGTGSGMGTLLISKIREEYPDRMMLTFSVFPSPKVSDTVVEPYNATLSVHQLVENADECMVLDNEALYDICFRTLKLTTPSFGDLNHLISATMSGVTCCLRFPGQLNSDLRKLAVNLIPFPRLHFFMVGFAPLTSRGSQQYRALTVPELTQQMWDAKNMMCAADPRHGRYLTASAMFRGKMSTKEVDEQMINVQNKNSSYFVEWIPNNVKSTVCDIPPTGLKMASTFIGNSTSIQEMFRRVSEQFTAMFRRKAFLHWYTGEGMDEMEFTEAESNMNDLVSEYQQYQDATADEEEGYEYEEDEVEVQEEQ
UniProt Q9LFA3: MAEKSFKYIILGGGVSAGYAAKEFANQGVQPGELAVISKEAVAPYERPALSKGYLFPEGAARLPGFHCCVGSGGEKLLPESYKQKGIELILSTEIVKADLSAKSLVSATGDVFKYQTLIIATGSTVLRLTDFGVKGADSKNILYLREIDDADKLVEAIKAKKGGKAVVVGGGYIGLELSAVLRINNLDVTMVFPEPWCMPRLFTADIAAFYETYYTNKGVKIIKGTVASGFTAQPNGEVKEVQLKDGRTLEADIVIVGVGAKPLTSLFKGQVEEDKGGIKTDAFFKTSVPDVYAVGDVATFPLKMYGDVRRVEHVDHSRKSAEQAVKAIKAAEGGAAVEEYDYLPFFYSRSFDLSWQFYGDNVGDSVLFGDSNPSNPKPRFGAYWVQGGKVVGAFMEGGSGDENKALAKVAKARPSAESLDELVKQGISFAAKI

B1: LIPID PHOSPHATE PHOSPHATASE 1 (ATPAP1) (protein, UniProt Q9ZU49 1-327)
chain: MTIGSFFSSLLFWRNSQDQEAQRGRMQEIDLSVHTIKSHGGRVASKHKHDWIILVILIAIEIGLNLISPFYRYVGKDMMTDLKYPFKDNTVPIWSVPVYAVLLPIIVFVCFYLKRTCVYDLHHSILGLLFAVLITGVITDSIKVATGRPRPNFYWRCFPDGKELYDALGGVVCHGKAAEVKEGHKSFPSGHTSWSFAGLTFLSLYLSGKIKAFNNEGHVAKLCLVIFPLLAACLVGISRVDDYWHHWQDVFAGALIGTLVAAFCYRQFYPNPYHEEGWGPYAYFKAAQERGVPVTSSQNGDALRAMSLQMDSTSLENMESGTSTAPR
B2: PLASMA MEMBRANE … PROTEIN 1B (PIP1;2) (protein, UniProt Q06611 1-286)
chain: MEGKEEDVRVGANKFPERQPIGTSAQSDKDYKEPPPAPLFEPGELASWSFWRAGIAEFIATFLFLYITVLTVMGVKRSPNMCASVGIQGIAWAFGGMIFALVYCTAGISGGHINPAVTFGLFLARKLSLTRAVYYIVMQCLGAICGAGVVKGFQPKQYQALGGGANTIAHGYTKGSGLGAEIIGTFVLVYTVFSATDAKRNARDSHVPILAPLPIGFAVFLVHLATIPITGTGINPARSLGAAIIFNKDNAWDDHWVFWVGPFIGAALAALYHVIVIRAIPFKSRS
B3: WHITE-BROWN COMPLEX HOMOLOG PROTEIN 11 (WBC11) (protein, UniProt Q8RXN0 1-703)
chain: MEIEASRQQTTVPVSVGGGNFPVGGLSPLSEAIWREKAPTEFVGDVSARLTWQDLTVMVTMGDGETQNVLEGLTGYAEPGSLTALMGPSGSGKSTMLDALASRLAANAFLSGTVLLNGRKTKLSFGTAAYVTQDDNLIGTLTVRETIWYSARVRLPDKMLRSEKRALVERTIIEMGLQDCADTVIGNWHLRGISGGEKRRVSIALEILMRPRLLFLDEPTSGLDSASAFFVTQTLRALSRDGRTVIASIHQPSSEVFELFDRLYLLSGGKTVYFGQASDAYEFFAQAGFPCPALRNPSDHFLRCINSDFDKVRATLKGSMKLRFEASDDPLEKITTAEAIRLLVDYYHTSDYYYTAKAKVEEISQFKGTILDSGGSQASFLLQTYTLTKRSFINMSRDFGYYWLRLLIYILVTVCIGTIYLNVGTSYSAILARGSCASFVFGFVTFMSIGGFPSFVEDMKVFQRERLNGHYGVAAFVIANTLSATPFLIMITFISGTICYFMVGLHPGFTHYLFFVLCLYASVTVVESLMMAIASIVPNFLMGIIIGAGIQGIFMLVSGFFRLPNDIPKPFWRYPMSYISFHFWALQGQYQNDLRGLTFDSQGSAFKIPGEYVLENVFQIDLHRSKWINLSVILSMIIIYRIIFFIMIKTNEDVTPWVRGYIARRRMKQKNGTQNTTVAPDGLTQSPSLRNYIATRTDGARRW
B4: ATDJ1A, DJ-1 homolog (protein, UniProt Q9FPF0 1-392)
chain: MASFTKTVLIPIAHGTEPLEAVAMITVLRRGGADVTVASVETQVGVDACHGIKMVADTLLSDITDSVFDLIVLPGGLPGGETLKNCKSLENMVKKQDSDGRLNAAICCAPALALGTWGLLEGKKATGYPVFMEKLAATCATAVESRVQIDGRIVTSRGPGTTIEFSITLIEQLFGKEKADEVSSILLLRPNPGEEFTFTELNQTNWSFEDTPQILVPIAEESEEIEAIALVDILRRAKANVVIAAVGNSLEVEGSRKAKLVAEVLLDEVAEKSFDLIVLPGGLNGAQRFASCEKLVNMLRKQAEANKPYGGICASPAYVFEPNGLLKGKKATTHPVVSDKLSDKSHIEHRVVVDGNVITSRAPGTAMEFSLAIVEKFYGREKALQLGKATLV
B5: FIBRILLIN 4 (FIB4) (protein, UniProt Q9LW57 73-284)
chain: SSSGSGGDDKQIALLKLKLLSVVSGLNRGLVASVDDLERAEVAAKELETAGGPVDLTDDLDKLQGKWRLLYSSAFSSRSLGGSRPGLPTGRLIPVTLGQVFQRIDVFSKDFDNIAEVELGAPWPFPPLEATATLAHKFELLGTCKIKITFEKTTVKTSGNLSQIPPFDIPRLPDSFRPSSNPGTGDFEVTYVDDTMRITRGDRGELRVFVIA
B6: VACUOLAR ATP SYNTHASE SUBUNIT E1 (VHA-E1) (protein, UniProt Q39258 1-230)
chain: MNDGDVSRQIQQMVRFIRQEAEEKANEISVSAEEEFNIEKLQLVEAEKKKIRQDYEKKEKQADVRKKIDYSMQLNASRIKVLQAQDDIVNAMKDQAAKDLLNVSRDEYAYKQLLKDLIVQCLLRLKEPSVLLRCREEDLGLVEAVLDDAKEEYAGKAKVHAPEVAVDTKIFLPPPPKSNDPHGLHCSGGVVLASRDGKIVCENTLDARLDVAFRMKLPVIRKSLFGQVTA
B7: EMBRYO … 2719 (EMB2719), HAPLESS 15 (HAP15) (protein, UniProt Q9LNU4 1-488)
chain: MTQDVEMKDNNTPSQSIISSSTSTMQNLKEIAALIDTGSYTKEVRRIARAVRLTIGLRQKLTGSVLSSFLDFALVPGSEAHSRLSSFVPKGDEHDMEVDTASSATQAAPSKHLPAELEIYCYFIVLLFLIDQKKYNEAKACSSASIARLKNVNRRTIDVIASRLYFYYSLSYEQTGDLAEIRGTLLALHHSATLRHDELGQETLLNLLLRNYLHYNLYDQAEKLRSKAPRFEAHSNQQFCRYLFYLGKIRTIQLEYTDAKESLLQAARKAPIAALGFRIQCNKWAILVRLLLGEIPERSIFTQKGMEKALRPYFELTNAVRIGDLELFRTVQEKFLDTFAQDRTHNLIVRLRHNVIRTGLRNISISYSRISLPDVAKKLRLNSENPVADAESIVAKAIRDGAIDATIDHKNGCMVSKETGDIYSTNEPQTAFNSRIAFCLNMHNEAVRALRFPPNTHKEKESDEKRRERKQQEEELAKHMAEEDDDDF
B8: BETA-XYLOSIDASE 1 (BXL1) (protein, UniProt Q9FGY1 31-774)
chain: LRPLFACDPANGLTRTLRFCRANVPIHVRVQDLLGRLTLQEKIRNLVNNAAAVPRLGIGGYEWWSEALHGISDVGPGAKFGGAFPGATSFPQVITTAASFNQSLWEEIGRVVSDEARAMYNGGVAGLTYWSPNVNILRDPRWGRGQETPGEDPIVAAKYAASYVRGLQGTAAGNRLKVAACCKHYTAYDLDNWNGVDRFHFNAKVTQQDLEDTYNVPFKSCVYEGKVASVMCSYNQVNGKPTCADENLLKNTIRGQWRLNGYIVSDCDSVDVFFNQQHYTSTPEEAAARSIKAGLDLDCGPFLAIFTEGAVKKGLLTENDINLALANTLTVQMRLGMFDGNLGPYANLGPRDVCTPAHKHLALEAAHQGIVLLKNSARSLPLSPRRHRTVAVIGPNSDVTETMIGNYAGKACAYTSPLQGISRYARTLHQAGCAGVACKGNQGFGAAEAAAREADATVLVMGLDQSIEAETRDRTGLLLPGYQQDLVTRVAQASRGPVILVLMSGGPIDVTFAKNDPRVAAIIWAGYPGQAGGAAIANIIFGAANPGGKLPMTWYPQDYVAKVPMTVMAMRASGNYPGRTYRFYKGPVVFPFGFGLSYTTFTHSLAKSPLAQLSVSLSNLNSANTILNSSSHSIKVSHTNCNSFPKMPLHVEVSNTGEFDGTHTVFVFAEPPINGIKGLGVNKQLIAFEKVHVMAGAKQTVQVDVDACKHLGVVDEYGKRRIPMGEHKLHIGDLKHTILVQPQL
B9: CALNEXIN 1 (CNX1) (protein, UniProt P29402 21-530)
chain: KLCYCDDQTVLYESFDEPFDGRWIVSKNSDYEGVWKHAKSEGHEDYGLLVSEKARKYGIVKELDEPLNLKEGTVVLQYEVRFQEGLECGGAYLKYLRPQEAGWTPQGFDSESPYSIMFGPDKCGGTNKVHFILKHKNPKSGEYVEHHLKFPPSVPYDKLSHVYTAILKPDNEVRILVDGEEKKKANLLSGEDFEPALIPAKTIPDPEDKKPEDWDERAKIPDPNAVKPEDWDEDAPMEIEDEEAEKPEGWLDDEPEEVDDPEATKPEDWDDEEDGMWEAPKIDNPKCEAAPGCGEWKRPMKRNPAYKGKWSSPLIDNPAYKGIWKPRDIPNPDYFELDRPDYEPIAAIGIEIWTMQDGILFDNILIAKDEKVAETYRQTTWKPKFDVEKEKQKAEEEAAGSADGLKSYQKVVFDLLNKVADLSFLSAYKSKITELIEKAEQQPNLTIGVLVAIVVVFFSLFLKLIFGGKKAAAPVEKKKPEVAESSKSGDEAEKKEETAAPRKRQPRRDN
B10: WALL-ASSOCIATED KINASE 2 (WAK2) (protein, UniProt Q9LMP1 24-732)
chain: QPRKECQTRCGNVAVEYPFGTSPGCYYPGDESFNLTCNEQEKLFFGNMPVINMSLSGQLRVRLVRSRVCYDSQGKQTDYIAQRTTLGNFTLSELNRFTVVGCNSYAFLRTSGVEKYSTGCISICDSATTKNGSCSGEGCCQIPVPRGYSFVRVKPHSFHNHPTVHLFNPCTYAFLVEDGMFDFHALEDLNNLRNVTTFPVVLDWSIGDKTCKQVEYRGVCGGNSTCFDSTGGTGYNCKCLEGFEGNPYLPNGCQDINECISSRHNCSEHSTCENTKGSFNCNCPSGYRKDSLNSCTRKVRPEYFRWTQIFLGTTIGFSVIMLGISCLQQKIKHRKNTELRQKFFEQNGGGMLIQRVSGAGPSNVDVKIFTEKGMKEATNGYHESRILGQGGQGTVYKGILPDNSIVAIKKARLGNRSQVEQFINEVLVLSQINHRNVVKVLGCCLETEVPLLVYEFINSGTLFDHLHGSLYDSSLTWEHRLRIATEVAGSLAYLHSSASIPIIHRDIKTANILLDKNLTAKVADFGASRLIPMDKEQLTTIVQGTLGYLDPEYYNTGLLNEKSDVYSFGVVLMELLSGQKALCFERPHCPKNLVSCFASATKNNRFHEIIDGQVMNEDNQREIQEAARIAAECTRLMGEERPRMKEVAAELEALRVKTTKYKWSDQYRETGEIEHLLGVQILSAQGETSSSIGYDSIRNVTTLDIEAGR

Biological target: T1, PLASMODESMATA-LOCATED PROTEIN 1 (PDLP1) fused to GFP (Arabidopsis) (UniProt Q8GXV7)
T1 sequence: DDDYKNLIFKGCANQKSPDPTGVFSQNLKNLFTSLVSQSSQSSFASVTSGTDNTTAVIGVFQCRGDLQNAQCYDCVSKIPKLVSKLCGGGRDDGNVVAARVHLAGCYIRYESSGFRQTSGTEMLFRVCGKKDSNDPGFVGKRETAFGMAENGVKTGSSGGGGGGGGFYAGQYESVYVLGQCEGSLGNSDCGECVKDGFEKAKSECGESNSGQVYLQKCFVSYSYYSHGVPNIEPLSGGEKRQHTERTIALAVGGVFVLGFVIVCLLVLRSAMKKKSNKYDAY
Assay: affinity purification with mass spectrometry; PDLP1-GFP immunoprecipitated with GFP-Trap beads from leaf extracts of PDLP1 OE plants, Hpa-infected and uninfected; 50 mM Tris-HCl pH 7.5, 150 mM NaCl, 10% glycerol, 1 mM EDTA, 5 mM DTT, 1% IGEPAL CA630; 4°C, 2 h; bands from SDS-PAGE analysed by LC-MS/MS; at least three replicate IPs

| Molecule | binding |
| --- | --- |
| UDP-GLUCOSE PYROPHOSPHORYLASE 1 (UGP) (from UniProt Q9M9P3) | binds |
| BiP (BIP1) (from UniProt Q9LKR3 28-669) | binds |
| BETA-TUBULIN 6 (TUB6) (from UniProt P29514 1-449) | binds |
| BETA GLUCOSIDASE 38 (BGLU38) (from UniProt P37702 20-541) | binds |
| Coatomer, alpha subunit (from UniProt Q9SJT9) | binds |
| translation elongation factor EF1B (from UniProt Q9FVT2) | binds |
| CLATHRIN HEAVY CHAIN 1 (CHC1) (from UniProt Q0WNJ6 1-1705) | binds |
| PHOSPHATE TRANSPORTER 3;1 (PHT3;1) | binds |
| BETA-TUBULIN 8 (TUB8) (from UniProt P29516 1-449) | binds |
| [sequence] REDUCTASE 1 (MDAR1) (from UniProt Q9LFA3 1-434) | binds |
| B1 | binds |
| B2 | binds |
| B3 | binds |
| B4 | binds |
| B5 | binds |
| B6 | binds |
| B7 | binds |
| B8 | binds |
| B9 | binds |
| B10 | binds |

No constants are given. Whether binding was seen depends on the method and setting. In cells and extracts the contact can be indirect. A yes stands for co-enrichment or nearness to the bait. Other partners may have been found. Tags and fused reporters may be left off the sequences shown.
